Screen size: about 410,000 compounds; about 18,000 (4.4%) were called active. Inconclusive results, whose numbers are uncertain, are shown with a selection of clear calls. No stated cut-off is given here; in the data, active means activity change below about -60%; inconclusive means no clear call, values can overlap the other calls; inactive means above about -39%. The source holds several records for some structures; these can differ, active in one and inactive in another.
Test: qHTS Assay for inhibitors of the human cytomegalovirus (HCMV)
Settings: HFF cells, HCMV-luciferase reporter, 72 h; at 57.5 µM; stronger effect = lower value
Summary of the method: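 Steps: HFFs plated, 16 h 37C; compounds added; HCMV-luciferase added to MOI 1 PFU/cell; 72 h 37C; OneGlo reagent, 5 min room temperature; luminescence read, normalized to controls.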
For `CCCCn1cnc2cc(NCc3ccccc3Cl)ccc21`, the activity change, negative = inhibition was inconclusive: -50.2%.
In the case of `Clc1cccc(Cl)c1Cn1cnc2c(N3CCCCCC3)ncnc21`, the activity change, negative = inhibition was active: -81.1%.
In the case of `CCN(CC)CCCN=C1N[C@@H](c2cccc(F)c2)C(C(=O)OC)=C(C)N1Cc1ccccc1`, the activity change, negative = inhibition was inactive: -11.2%.
In the case of `Cn1c(N)c(C(=O)CSc2nn(-c3ccccc3)c(=S)s2)c(=O)n(C)c1=O`, the activity change, negative = inhibition was inconclusive: -54.2%.
For `Cc1cccc(C)c1-n1c(C)cc(/C=N\NC(=O)CC(=O)NC2CCCCC2)c1C`, the activity change, negative = inhibition was inconclusive: -43.9%.
With `CC(=O)N1CCCc2cc(S(=O)(=O)N3CCCC(C(=O)N4CCN(c5ccccc5)CC4)C3)ccc21` (stereo unspecified) the activity change, negative = inhibition was inconclusive: -53.1%.
In the case of `CC(C)(C)c1cc(C(=O)O)n(Cc2ccc(Cl)cc2Cl)n1`, the activity change, negative = inhibition was inactive: 55.4%.
For `COc1ccc(CNC(=O)c2cc3cc(OC)ccc3oc2=O)cc1`, the activity change, negative = inhibition was active: -104%.
With `O=C(CN1C(=O)NC2(CCCC2)C1=O)OCCOc1ccccc1Cl` the activity change, negative = inhibition was inconclusive: -59.2%.
With `Cc1ccc2cccc(OCCCOc3ccccc3F)c2n1` the activity change, negative = inhibition was inactive: 7.62%.
With `Cc1cccc(OCC(=O)NC2CCCCCC2)c1C` the activity change, negative = inhibition was inconclusive: -57.3%.
With `COCC(=O)N1CCc2ccc(NC(=O)c3ccc(C(F)(F)F)cc3)cc2C1` the activity change, negative = inhibition was inconclusive: -42.3%.
In the case of `CCOC(=O)C1CCN(Cc2ccc(O)c3ncccc23)CC1`, the activity change, negative = inhibition was inconclusive: -56.6%.
In the case of `N#C/C(=C(/O)COC(=O)CSc1ccc2ccccc2c1)c1nc2ccccc2[nH]1`, the activity change, negative = inhibition was active: -102%.
In the case of `COC(=O)[C@@H](Cc1c[nH]c2ccccc12)NCc1ccc(B(O)O)cc1`, the activity change, negative = inhibition was inconclusive: -54.1%.
In the case of `CC(C)C[C@@H](CN1CCCC1CN1C(=S)NC[C@@H]1Cc1ccc(O)cc1)N1C[C@H](Cc2ccc(O)cc2)N(CCc2ccccc2)C1=S` (stereo partly specified), the activity change, negative = inhibition was active: -94.8%.
In the case of `CC1CC(C)CN(C(=O)CSc2ccsc2[N+](=O)[O-])C1` (stereo unspecified), the activity change, negative = inhibition was active: -70.8%.
With `COc1ccc(C(=O)c2cnc3ccccc3c2-c2ccccc2)cc1` the activity change, negative = inhibition was inconclusive: -43.9%.
With `Cc1cc(NC(=O)c2ccc(Br)cc2)nc(C)n1` the activity change, negative = inhibition was inactive: -4.78%.
In the case of `CC(=O)Nc1ccc(NC(=O)C/C(C)=N/NC(=O)c2cccc3ccccc23)cc1`, the activity change, negative = inhibition was inactive: 12.6%.
For `O=C(O)CCCCCNC(=O)C(=O)C1C(=O)Nc2ccccc21` (stereo unspecified), the activity change, negative = inhibition was inactive: 23.3%.
In the case of `CC(C)C1Oc2ccccc2N(CC(=O)N2CCOCC2)C1=O` (stereo unspecified), the activity change, negative = inhibition was inconclusive: -52.7%.
For `COc1ccc(-c2c(C)n([O-])c3c([n+]2=O)CCCCC3)cc1OC`, the activity change, negative = inhibition was inconclusive: -53.1%.
With `CC(C)c1ccccc1NC(=O)C1C2C=CC(C2)C1C(=O)O` (stereo unspecified) the activity change, negative = inhibition was inactive: 18.1%.
In the case of `COc1ccc(-n2c(=S)[nH]c(=O)c3cccnc32)cc1`, the activity change, negative = inhibition was inactive: 20.9%.
For `CCCn1c(C)cc(C(=O)COC(=O)CN=C2NS(=O)(=O)c3ccccc32)c1C`, the activity change, negative = inhibition was inconclusive: -56.1%.
For `COc1ccc(OC)c(C2CC(=O)Nc3c2c(=O)[nH]c2ncnn32)c1` (stereo unspecified), the activity change, negative = inhibition was inconclusive: -57.3%.
With `Cc1cc(-c2nc3cccnc3s2)ccc1NS(=O)(=O)c1cccs1` the activity change, negative = inhibition was inactive: 85.3%.
For `CCOC(=O)c1ccc(CN(Cc2ccc(F)cc2)S(=O)(=O)c2ccc(F)c(C(=O)Nc3c(C)cccc3C)c2)cc1`, the activity change, negative = inhibition was inconclusive: -48.2%.
With `Cc1ccc(C(C(=O)NCc2ccco2)N(C(=O)CNC(=O)c2cccs2)c2c(C)cc(C)cc2C)cc1` (stereo unspecified) the activity change, negative = inhibition was active: -78.4%.
With `COc1cccc(-c2nc(CS(=O)(=O)CC(=O)N3CCN(c4cc(C)ccc4C)CC3)c(C)o2)c1` the activity change, negative = inhibition was active: -75.7%.
For `O=C(NCc1ccccc1)C1=C[C@H](c2ccc3c(c2)OCO3)C[C@H](OCCCCO)O1`, the activity change, negative = inhibition was inactive: 3.35%.
In the case of `Cc1ccc(C)c(NC(=O)CN(C)C(=O)c2ccccc2OCc2ccccc2Cl)c1`, the activity change, negative = inhibition was inconclusive: -49.3%.
For `CCCc1ccc(OCC(=O)Nc2sc(C(=O)OCC)c(C)c2C(=O)OCC)cc1`, the activity change, negative = inhibition was inconclusive: -47.2%.
For `COc1cnc(-c2ccccn2)nc1Sc1cccc(Cl)c1`, the activity change, negative = inhibition was active: -64.4%.
For `Nc1ncnc(SCc2c(F)cccc2Cl)n1`, the activity change, negative = inhibition was inactive: -24.2%.
For `CCOc1ccc(NC(=O)c2cccc(OC(=S)N3CCC(C)CC3)c2)cc1`, the activity change, negative = inhibition was inactive: 55.1%.
With `O=C(CC(=O)c1c(F)cccc1Cl)c1ccccc1O` the activity change, negative = inhibition was inactive: -17.7%.
For `Cc1ccc(C(=O)Nc2ccccc2-c2ccccc2)o1`, the activity change, negative = inhibition was active: -67.1%.
In the case of `CCC(=O)Nc1ccc(C(=O)Cn2ncc(Cl)c(Cl)c2=O)cc1`, the activity change, negative = inhibition was active: -103%.
For `O=C1C=C(c2ccnc3cc(Cl)ccc23)C[C@@H](c2ccc3c(c2)OCO3)C1`, the activity change, negative = inhibition was active: -66.7%.
In the case of `Cc1ccc(NC(=O)CSc2nc3ccccc3c(=O)n2CCCC(=O)NCCCN2CCOCC2)cc1C`, the activity change, negative = inhibition was inconclusive: -46.2%.
For `CN1CCN(C(=O)C2CCN(c3ncc(C(F)(F)F)cc3Cl)CC2)CC1`, the activity change, negative = inhibition was inconclusive: -40.4%.
With `Cc1cccc(C)c1Nc1c(-c2ccccn2)nc2c(C)cccn12` the activity change, negative = inhibition was active: -68.8%.
With `COc1ccc(-c2[nH]c3ccccc3c2SCCN)cc1` the activity change, negative = inhibition was inconclusive: -48.2%.
For `Cc1ccc2ncccc2c1N`, the activity change, negative = inhibition was inconclusive: -43.7%.
In the case of `c1ccc(-n2cnc3ccccc32)nc1`, the activity change, negative = inhibition was inconclusive: -41.7%.
With `COc1ccccc1CN1CC(C(=O)N(CCO)Cc2cccs2)CCC1=O` (stereo unspecified) the activity change, negative = inhibition was inactive: -8.19%.
With `O=C(CCCOc1ccccc1)Nc1cccc(S(=O)(=O)N2CCCCCC2)c1` the activity change, negative = inhibition was inconclusive: -49.6%.
With `COc1cc2cnc(-c3ccccc3)c(C(=O)c3ccc(F)cc3)c2cc1OC` the activity change, negative = inhibition was inconclusive: -52%.
In the case of `CN(C)c1nc(NC(C)(C)C)nc(NC(C)(C)C)n1`, the activity change, negative = inhibition was inconclusive: -41.6%.
In the case of `O=C(CN1CCN(S(=O)(=O)c2cccc(Cl)c2)CC1)NCC1(N2CCOCC2)CCCCC1`, the activity change, negative = inhibition was inactive: -11.2%.
With `Cc1cc(N)c2cc(NC(=O)Nc3ccc4nc(C)cc(N)c4c3)ccc2n1` the activity change, negative = inhibition was active: -99.3%.
With `Cc1cc(=O)oc2cc(NC(=O)c3cccc(Br)c3)ccc12` the activity change, negative = inhibition was active: -74%.
In the case of `NC(CCc1ccccc1)c1csc(NC(=O)Nc2cccc(C(F)(F)F)c2)n1` (stereo unspecified), the activity change, negative = inhibition was active: -98.1%.
In the case of `Cc1ccc(/C=C/C(=O)N2CCN(c3cccc(C(F)(F)F)c3)CC2)cc1`, the activity change, negative = inhibition was inconclusive: -41.8%.

— PubChem BioAssay AID1259415 (National Center for Advancing Translational Sciences (NCATS), 2018)
On the % scale 0 is the no-effect control and ±100 the full control effect.
